{"source": "paper PMC9100673", "about": "“Acridine Based N-Acylhydrazone Derivatives as Potential Anticancer Agents: Synthesis, Characterization and ctDNA/HSA Spectroscopic Binding Properties” (Molecules, 2022)"}
{"tested_on": "calf thymus DNA (ctDNA)", "assay": "UV-Vis absorption titration with ctDNA (Benesi-Hildebrand)", "type": "binding", "details": "compound 25 μM, ctDNA up to 680 μM, pH 7.4, room temperature", "from_the_text": "Changes in absorbance intensity (either hyperchromic or hypochromic) and a shift in the peak position (hypsochromicity or batochromicity) are typical spectral properties closely related to the interaction of a drug with DNA [60, 61]. […] The absorption spectra of compounds 3a–3d in the presence of increasing concentrations of ctDNA show hypochromicity (16–51%) and a slight hypsochromic shift (Δλ = 1–9 nm, 3a–3d), findings which indicate that the acridine derivatives have interacted with DNA (Table 3). […] Hypochromism typically occurs as a result of the contraction of ctDNA in the helix axis, and this conformation change is often a result of a surface binding complex developing between the small molecules and the DNA, either through external contact or in the case of strong interaction between the small molecules and DNA [62, 63]. Classical intercalating compounds are able to couple their π orbital with the π of the base pair of DNA during intercalation into DNA, thereby decreasing the π → π* transition energies and inducing hypochromism combined with a batochromic shift. In contrast, electrostatic interaction can also show hyperchromism, an effect that indicates the increasing likelihood of electrons in the π–π* transition of the extended resonance system. This process is usually accompanied by a hypsochromic shift as a response to the increasing electron density in π-orbitals; it also stabilizes the orbitals and results in an increase in the energy gap between the π and π* orbitals. On this basis, it is possible to state with confidence that the observed changes in the absorption spectra of acridine derivatives 3a–3d in the presence ctDNA are a result of the electron-rich DNA donating electrons to the π-orbitals of the system.\nThe binding constant Kb of compounds 3a–3d was determined using the modified Benesi-Hildebrand Equation (6):(6) A0/A−A0=εB/εB + DNA+εB/εB + DNA × 1/KbDNA, where A0 and A are the absorbances of the acridine derivatives in the absence and presence of ctDNA; εB and εB + DNA are the molar extinction coefficients of the acridine derivatives individually and in the bound complex, respectively; Kb is the binding constant; and [DNA] is the concentration of ctDNA. The binding constant Kb was estimated from the intercept-to-slope ratios of A0/(A − A0) vs. 1/[DNA] plots (insert graph Figure 6). The values of binding constant for the interaction of the acridine derivatives with ctDNA increased in the following relation: 3d < 3c < 3a < 3b.\nUV-Vis absorption spectrum of the drug-ctDNA complexes were measured on a Varian Cary 100 Bio UV-Vis Spectrophotometer. The UV-Vis spectra of free compounds 3a–3d and drug-ctDNA complexes were recorded at the wavelength range of 220 to 600 nm. The measurements were performed in a 1.0 cm quartz cuvette with 2 mL of a Tris-HCl (10 mM, pH = 7.4) buffer at room temperature. The titration experiment was carried out in the presence of a fixed concentration of compounds 3a–3d (25 μM) and was performed by titrating varying concentrations of ctDNA ranging from 0 to 680 μM. The solution was incubated for 5 min and then tested.", "units": {"H, hypochromicity at λmax": "%", "Δλ, hypsochromic shift (blue shift) of absorption peak": "nm"}}
{"smiles": "O=C(N/N=C/c1cccc2cc3ccccc3nc12)c1ccccc1", "note": "[3a, N′-[(E)-(Acridin-4-yl)methylidene]benzohydrazide]", "H, hypochromicity at λmax": 44, "Δλ, hypsochromic shift (blue shift) of absorption peak": 3}
{"smiles": "O=C(N/N=C/c1cccc2cc3ccccc3nc12)c1ccc(F)cc1", "note": "[3b, N′-[(E)-Acridin-4-ylmethylidene]-4-fluorobenzohydrazide]", "H, hypochromicity at λmax": 51, "Δλ, hypsochromic shift (blue shift) of absorption peak": 9}
{"smiles": "O=C(N/N=C/c1cccc2cc3ccccc3nc12)c1ccc(Cl)cc1", "note": "[3c, N′-[(E)-Acridin-4-ylmethylidene]-4-chlorobenzohydrazide]", "H, hypochromicity at λmax": 17, "Δλ, hypsochromic shift (blue shift) of absorption peak": 1}
{"smiles": "O=C(N/N=C/c1cccc2cc3ccccc3nc12)c1ccc(Br)cc1", "note": "[3d, N′-[(E)-Acridin-4-ylmethylidene]-4-bromobenzohydrazide]", "H, hypochromicity at λmax": 16, "Δλ, hypsochromic shift (blue shift) of absorption peak": 1}
